Source: publication PMC4595342
These are yes or no findings as the source states them, for the method shown. Binding seen in cells or lysates may run through a third protein. Tags and fused reporters may be left off the sequences shown.

Protein sequences, listed by entry. Tags and fused reporters are not part of them.
UniProt Q9JJ66: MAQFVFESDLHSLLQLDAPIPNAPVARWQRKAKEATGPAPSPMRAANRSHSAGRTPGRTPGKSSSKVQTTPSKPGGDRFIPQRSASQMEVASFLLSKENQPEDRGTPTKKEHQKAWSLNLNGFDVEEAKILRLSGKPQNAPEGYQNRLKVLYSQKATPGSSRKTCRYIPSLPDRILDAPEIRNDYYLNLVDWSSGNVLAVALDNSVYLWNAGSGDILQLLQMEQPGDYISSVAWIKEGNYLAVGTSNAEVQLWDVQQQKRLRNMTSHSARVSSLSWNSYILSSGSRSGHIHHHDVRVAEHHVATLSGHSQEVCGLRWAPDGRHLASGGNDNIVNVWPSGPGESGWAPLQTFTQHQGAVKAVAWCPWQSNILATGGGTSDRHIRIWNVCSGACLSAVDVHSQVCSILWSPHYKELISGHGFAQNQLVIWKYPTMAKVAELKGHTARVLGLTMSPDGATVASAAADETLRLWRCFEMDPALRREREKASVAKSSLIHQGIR
UniProt Q9R1K5: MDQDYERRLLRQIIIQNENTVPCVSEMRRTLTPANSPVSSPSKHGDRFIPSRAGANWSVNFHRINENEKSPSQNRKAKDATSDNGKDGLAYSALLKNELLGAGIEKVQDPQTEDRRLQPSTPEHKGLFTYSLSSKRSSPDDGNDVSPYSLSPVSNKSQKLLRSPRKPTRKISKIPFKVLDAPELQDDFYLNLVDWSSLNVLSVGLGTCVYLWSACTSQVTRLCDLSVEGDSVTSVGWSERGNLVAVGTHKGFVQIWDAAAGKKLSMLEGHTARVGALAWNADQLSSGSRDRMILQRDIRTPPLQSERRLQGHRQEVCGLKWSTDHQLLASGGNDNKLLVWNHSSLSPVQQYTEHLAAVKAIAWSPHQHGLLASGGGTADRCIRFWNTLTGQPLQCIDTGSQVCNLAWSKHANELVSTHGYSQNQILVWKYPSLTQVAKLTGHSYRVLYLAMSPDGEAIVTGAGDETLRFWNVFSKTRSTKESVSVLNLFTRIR

T1: KIF7-GFP (mouse) (UniProt B7ZNG0)
T1 sequence: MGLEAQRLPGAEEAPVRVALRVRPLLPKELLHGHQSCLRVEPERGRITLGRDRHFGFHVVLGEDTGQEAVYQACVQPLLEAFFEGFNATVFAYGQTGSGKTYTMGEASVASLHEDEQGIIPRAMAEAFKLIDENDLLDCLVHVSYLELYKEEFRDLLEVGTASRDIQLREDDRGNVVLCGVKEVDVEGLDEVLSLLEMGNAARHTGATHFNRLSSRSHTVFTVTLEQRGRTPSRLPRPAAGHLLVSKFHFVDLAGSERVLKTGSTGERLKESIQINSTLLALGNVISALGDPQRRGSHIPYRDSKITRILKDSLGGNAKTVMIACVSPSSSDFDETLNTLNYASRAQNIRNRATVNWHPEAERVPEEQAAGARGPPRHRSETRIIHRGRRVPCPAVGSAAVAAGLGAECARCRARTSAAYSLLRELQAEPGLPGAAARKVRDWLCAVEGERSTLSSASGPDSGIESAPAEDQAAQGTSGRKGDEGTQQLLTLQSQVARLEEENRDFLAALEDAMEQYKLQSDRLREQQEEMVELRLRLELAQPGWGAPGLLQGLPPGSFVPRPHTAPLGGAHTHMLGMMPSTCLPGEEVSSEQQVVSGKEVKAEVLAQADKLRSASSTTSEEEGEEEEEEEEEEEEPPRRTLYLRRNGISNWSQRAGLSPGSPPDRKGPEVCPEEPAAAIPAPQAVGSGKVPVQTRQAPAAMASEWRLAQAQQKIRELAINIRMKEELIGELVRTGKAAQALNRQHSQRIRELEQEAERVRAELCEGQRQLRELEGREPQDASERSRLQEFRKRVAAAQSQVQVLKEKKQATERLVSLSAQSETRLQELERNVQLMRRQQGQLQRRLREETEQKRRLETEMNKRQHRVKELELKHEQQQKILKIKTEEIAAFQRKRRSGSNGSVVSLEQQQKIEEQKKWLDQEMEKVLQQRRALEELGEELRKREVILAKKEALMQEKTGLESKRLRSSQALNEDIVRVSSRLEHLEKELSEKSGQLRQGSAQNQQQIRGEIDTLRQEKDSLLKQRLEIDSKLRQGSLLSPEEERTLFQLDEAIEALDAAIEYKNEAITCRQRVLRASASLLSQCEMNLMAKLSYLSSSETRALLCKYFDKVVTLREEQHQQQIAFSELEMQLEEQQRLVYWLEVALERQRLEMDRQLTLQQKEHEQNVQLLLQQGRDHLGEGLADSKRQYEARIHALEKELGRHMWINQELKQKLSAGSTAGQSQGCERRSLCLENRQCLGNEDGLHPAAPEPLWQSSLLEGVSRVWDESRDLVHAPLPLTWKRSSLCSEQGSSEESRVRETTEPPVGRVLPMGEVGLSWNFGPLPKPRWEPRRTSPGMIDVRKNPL


Each molecule was assayed against T1, KIF7-GFP (mouse) (assay: co-IP; KIF7-GFP precipitated with GFP-trap agarose beads (Chromotek GFP trap kit) from asynchronous KIF7-GFP expressing MLE15 cells; immunoblots of the precipitate; agarose beads as negative control).

Row | Molecule | binding
1 | CDC20 (p55) (from UniProt Q9JJ66 1-499) | no binding
2 | FZR1 (CDH1) (from UniProt Q9R1K5 1-493) | no binding
3 | pCDK2 (from UniProt P97377 1-346) | no binding
4 | p21 (protein, UniProt P39689 1-159) MSNPGDVRPVPHRSKVCRCLFGPVDSEQLRRDCDALMAGCLQEARERWNFDFVTETPLEGNFVWERVRSLGLPKVYLSPGSRSRDDLGGDKRPSTSSALLQGPAPEDHVALSLSCTLVSERPEDSPGGPGTSQGRKRRQTSLTDFYHSKRRLVFCKRKP | no binding
